Assay [1] concerns the target human DNA polymerase δ catalytic subunit p125 (human) (UniProt P28340). The experiment in a line: immunoaffinity chromatography and Mono Q co-purification; subunits co-expressed in Sf9 from a single MultiBac baculovirus; lysate on 78F5 anti-p125 agarose, wash TGEE with 0.1 M NaCl, elution 0.4 M NaCl and 30% ethylene glycol; Mono Q gradient 0.1 to 1 M NaCl; 12.5% SDS-PAGE, silver staining.

Amino acid sequences for entries named in this document (tags omitted). A change or cut given only in a name is not applied to a line headed by its entry.
UniProt P28340: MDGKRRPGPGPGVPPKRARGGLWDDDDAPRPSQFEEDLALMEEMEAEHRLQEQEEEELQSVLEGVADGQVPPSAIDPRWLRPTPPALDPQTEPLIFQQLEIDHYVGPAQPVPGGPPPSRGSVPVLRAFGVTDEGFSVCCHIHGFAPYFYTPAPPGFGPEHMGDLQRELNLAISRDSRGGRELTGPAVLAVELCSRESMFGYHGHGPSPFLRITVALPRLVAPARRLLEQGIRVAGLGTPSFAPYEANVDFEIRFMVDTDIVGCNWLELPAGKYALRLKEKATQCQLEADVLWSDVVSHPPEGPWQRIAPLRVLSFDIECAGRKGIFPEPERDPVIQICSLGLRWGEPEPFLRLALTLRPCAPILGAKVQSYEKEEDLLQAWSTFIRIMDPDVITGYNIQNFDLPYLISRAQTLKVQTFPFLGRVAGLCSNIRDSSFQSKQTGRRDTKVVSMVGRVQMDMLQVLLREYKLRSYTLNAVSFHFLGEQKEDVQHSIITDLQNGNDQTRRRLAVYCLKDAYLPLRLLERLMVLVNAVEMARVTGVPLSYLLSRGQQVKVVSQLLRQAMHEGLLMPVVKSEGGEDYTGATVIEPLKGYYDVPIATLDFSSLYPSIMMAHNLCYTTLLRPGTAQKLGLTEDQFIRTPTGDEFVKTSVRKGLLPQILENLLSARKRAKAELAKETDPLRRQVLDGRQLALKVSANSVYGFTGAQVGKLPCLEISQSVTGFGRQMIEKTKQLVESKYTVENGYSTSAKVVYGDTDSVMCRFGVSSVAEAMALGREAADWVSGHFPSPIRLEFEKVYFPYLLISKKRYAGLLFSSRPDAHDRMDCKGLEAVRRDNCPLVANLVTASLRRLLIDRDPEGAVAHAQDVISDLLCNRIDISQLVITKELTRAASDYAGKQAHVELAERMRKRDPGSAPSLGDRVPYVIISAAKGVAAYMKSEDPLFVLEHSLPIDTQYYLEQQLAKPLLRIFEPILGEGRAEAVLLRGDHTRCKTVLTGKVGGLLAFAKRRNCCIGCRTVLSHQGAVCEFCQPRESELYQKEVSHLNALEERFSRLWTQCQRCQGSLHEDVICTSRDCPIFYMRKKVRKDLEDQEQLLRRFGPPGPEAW

The target of assay [2] is native DNA polymerase δ subunit p125 of HeLa cells (human (endogenous in HeLa)) (UniProt P28340). Kind of assay: immunoaffinity chromatography with Western blot; lysate of HeLa cells (untreated, or UV-C 20 J/m^2 and harvested 4 hours later) on anti-p125 agarose at 4°C, wash TGEE with 0.1 M NaCl, elution 0.4 M NaCl and 30% ethylene glycol; fractions blotted for p12, p125, p50 and p68.

No constants are given. Whether binding was seen depends on the method and setting. Some results given as binding are weak or reduced against the parent protein; the word gives no strength.

B1: human DNA polymerase δ subunit p12 (protein, UniProt Q9HCU8 1-107)
chain: MGRKRLITDSYPVVKRREGPAGHSKGELAPELGEEPQPRDEEEAELELLRQFDLAWQYGPCTGITRLQRWCRAKQMGLEPPPEVWQVLKTHPGDPRFQCSLWHLYPL
B1: in assay [1], the binding entry was “binds”.

B2: native DNA polymerase δ subunit p12 of HeLa cells (protein, UniProt Q9HCU8 1-107)
chain: MGRKRLITDSYPVVKRREGPAGHSKGELAPELGEEPQPRDEEEAELELLRQFDLAWQYGPCTGITRLQRWCRAKQMGLEPPPEVWQVLKTHPGDPRFQCSLWHLYPL
With B2, the binding entry in assay [2] is on record as “binds”.

B3: human DNA polymerase δ subunit p68 (protein, UniProt Q15054 1-466)
chain: MADQLYLENIDEFVTDQNKIVTYKWLSYTLGVHVNQAKQMLYDYVERKRKENSGAQLHVTYLVSGSLIQNGHSCHKVAVVREDKLEAVKSKLAVTASIHVYSIQKAMLKDSGPLFNTDYDILKSNLQNCSKFSAIQCAAAVPRAPAESSSSSKKFEQSHLHMSSETQANNELTTNGHGPPASKQVSQQPKGIMGMFASKAAAKTQETNKETKTEAKEVTNASAAGNKAPGKGNMMSNFFGKAAMNKFKVNLDSEQAVKEEKIVEQPTVSVTEPKLATPAGLKKSSKKAEPVKVLQKEKKRGKRVALSDDETKETENMRKKRRRIKLPESDSSEDEVFPDSPGAYEAESPSPPPPPSPPLEPVPKTEPEPPSVKSSSGENKRKRKRVLKSKTYLDGEGCIVTEKVYESESCTDSEEELNMKTSSVHRPPAMTVKKEPREERKGPKKGTAALGKANRQVSITGFFQRK
With B3, the binding result in assay [1] is reported as “binds”.

B4: native DNA polymerase δ subunit p68 of HeLa cells (protein, UniProt Q15054 1-466)
chain: MADQLYLENIDEFVTDQNKIVTYKWLSYTLGVHVNQAKQMLYDYVERKRKENSGAQLHVTYLVSGSLIQNGHSCHKVAVVREDKLEAVKSKLAVTASIHVYSIQKAMLKDSGPLFNTDYDILKSNLQNCSKFSAIQCAAAVPRAPAESSSSSKKFEQSHLHMSSETQANNELTTNGHGPPASKQVSQQPKGIMGMFASKAAAKTQETNKETKTEAKEVTNASAAGNKAPGKGNMMSNFFGKAAMNKFKVNLDSEQAVKEEKIVEQPTVSVTEPKLATPAGLKKSSKKAEPVKVLQKEKKRGKRVALSDDETKETENMRKKRRRIKLPESDSSEDEVFPDSPGAYEAESPSPPPPPSPPLEPVPKTEPEPPSVKSSSGENKRKRKRVLKSKTYLDGEGCIVTEKVYESESCTDSEEELNMKTSSVHRPPAMTVKKEPREERKGPKKGTAALGKANRQVSITGFFQRK
As for B4, in assay [2], the binding entry is “binds”.

These data come from PMC3377666.
